These are yes or no findings as the source states them, for the method shown. In cells and extracts the contact can be indirect. Some entries that bind do so weakly or less than the wild type.
Legend:
[1] = target: T1, DNAI2 (mouse (endogenous in testes, oviduct, trachea, nasal epithelium)) (UniProt A2AC93); experiment: co-IP; endogenous DNAI2 immunoprecipitated from mouse tissue extracts (testes P26, oviduct P7, trachea P7 and P90) of wild type and Zmynd10-/- animals, mild lysis buffer, Protein G magnetic beads, immunoblot for DNAI1 and DNAH5; DNAH5 co-precipitation 0.47 and 0.56 fold reduction in mutant P7 oviduct and trachea
T1 sequence: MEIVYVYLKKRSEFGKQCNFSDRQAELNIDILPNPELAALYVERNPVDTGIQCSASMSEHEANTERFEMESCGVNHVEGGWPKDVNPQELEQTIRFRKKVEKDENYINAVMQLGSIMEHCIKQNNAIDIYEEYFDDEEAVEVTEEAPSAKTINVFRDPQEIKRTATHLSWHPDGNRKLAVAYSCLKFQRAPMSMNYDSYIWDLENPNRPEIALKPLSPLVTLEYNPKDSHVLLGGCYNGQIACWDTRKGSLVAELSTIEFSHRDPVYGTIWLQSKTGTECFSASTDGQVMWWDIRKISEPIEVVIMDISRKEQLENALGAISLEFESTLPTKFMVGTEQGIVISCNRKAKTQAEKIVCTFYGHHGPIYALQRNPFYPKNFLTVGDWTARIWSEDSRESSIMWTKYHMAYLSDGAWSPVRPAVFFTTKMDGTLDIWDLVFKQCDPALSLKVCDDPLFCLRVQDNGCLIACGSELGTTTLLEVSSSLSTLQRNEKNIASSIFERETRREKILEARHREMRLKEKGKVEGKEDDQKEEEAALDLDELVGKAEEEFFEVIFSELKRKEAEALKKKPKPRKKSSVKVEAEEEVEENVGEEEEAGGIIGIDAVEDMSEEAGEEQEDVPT

[2] = target: T2, DNAI1 (human (endogenous in tracheal epithelial cultures)), Q9UI46; experiment: co-IP; endogenous FKBP8 and DNAI1 immunoprecipitated from lysates of healthy human donor tracheal epithelial cultures (MucilAir, D17 ALI, immature cells), Protein G magnetic beads, immunoblot for DNAH5 and ZMYND10; conditions: remark: other sources report otherwise
T2 chain: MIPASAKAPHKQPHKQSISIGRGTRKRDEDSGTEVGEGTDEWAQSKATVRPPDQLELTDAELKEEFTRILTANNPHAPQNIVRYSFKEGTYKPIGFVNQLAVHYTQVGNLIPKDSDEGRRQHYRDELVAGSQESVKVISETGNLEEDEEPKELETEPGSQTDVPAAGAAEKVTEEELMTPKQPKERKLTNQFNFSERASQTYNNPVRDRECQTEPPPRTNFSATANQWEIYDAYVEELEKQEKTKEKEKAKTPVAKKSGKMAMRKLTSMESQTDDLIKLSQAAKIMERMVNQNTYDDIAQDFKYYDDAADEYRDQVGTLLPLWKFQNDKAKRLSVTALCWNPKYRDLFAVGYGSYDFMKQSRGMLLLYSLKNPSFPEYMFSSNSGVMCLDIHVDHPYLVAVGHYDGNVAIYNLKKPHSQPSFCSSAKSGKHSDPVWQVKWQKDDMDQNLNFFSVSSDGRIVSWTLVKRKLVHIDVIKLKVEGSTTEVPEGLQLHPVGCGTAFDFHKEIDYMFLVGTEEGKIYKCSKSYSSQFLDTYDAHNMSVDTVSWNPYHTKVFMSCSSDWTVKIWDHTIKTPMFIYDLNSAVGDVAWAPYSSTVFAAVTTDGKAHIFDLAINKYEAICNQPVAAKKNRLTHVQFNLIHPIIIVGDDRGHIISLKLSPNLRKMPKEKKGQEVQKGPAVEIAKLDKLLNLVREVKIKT

Row | Binder | binding [1] | binding [2]
1 | DNAI1 (protein, UniProt Q8C0M8 1-701) MPSKQIRKQSISVTRGARRRDEDSGTDVGEGTDEWSQSKATVRPPDQLELTDAELKEEFTRILTANNPHAPQNIVRYSFKEGTYKLIGFVNQMAVHFSQVGNLIPKDSDEGRRQHYRDEMVAGSQESIKVVTSEAENLEEEEEPKEGEGEAEAEAEAGSQTDIPAAAETTEKVIEEELMAPVQPKERKLTNQFNFSERASQTFNNPLRDRECQMEPPPRTNFSATANQWEIYDAYVDELEKQEKTKEKEKAKTPVAKKTEKMAMRKLTSMESQSDDITKVTQAAKIVERMVNQNTYDDVAQDFKYYEDTADEYRDQEGTLLPLWKFQNDKAKRLAVTALCWNPKYKDLFAVGHGSYDFMKQSRGMLLLYSMKNPSFPEYMFSSESGIMCLDVHVDHPYLVVVGYYDGNVAIYNLKKPHSQPCFRSTSKSGKHTDPVWQVKWQKDDMDHNLNFFSVSSDGRIVSWTLVKSELVHIDIIKLKTEGSTTEIPEGLQLHTVGCGTAFDFHKEIDYMFLVGTEEGKIYKCSKSYSSQFLDTYDAHNMAVDAVLWNPYHTKVFMSCSSDWTVKIWDHTIKTPMFIYDLNSAVGDVAWAPYSSTVFAAVTTDGKAHVFDLAVNKYEAICNQPVVAKKKNKITHVQFNPIHPIIIVGDDRGHIICLKLSPNLRKMPKEKKGQEVQKGPAVEIAKLDKLLNLVREVKTKT | binds | –
2 | ZMYND10, O75800 1-440 (protein) MGDLELLLPGEAEVLVRGLRSFPLREMGSEGWNQQHENLEKLNMQAILDATVSQGEPIQELLVTHGKVPTLVEELIAVEMWKQKVFPVFCRVEDFKPQNTFPIYMVVHHEASIINLLETVFFHKEVCESAEDTVLDLVDYCHRKLTLLVAQSGCGGPPEGEGSQDSNPMQELQKQAELMEFEIALKALSVLRYITDCVDSLSLSTLSRMLSTHNLPCLLVELLEHSPWSRREGGKLQQFEGSRWHTVAPSEQQKLSKLDGQVWIALYNLLLSPEAQARYCLTSFAKGRLLKLRAFLTDTLLDQLPNLAHLQSFLAHLTLTETQPPKKDLVLEQIPEIWERLERENRGKWQAIAKHQLQHVFSPSEQDLRLQARRWAETYRLDVLEAVAPERPRCAYCSAEASKRCSRCQNEWYCCRECQVKHWEKHGKTCVLAAQGDRAK | – | no binding
